Test results published in the NIST ThermoML archive (doi:10.1021/acs.jced.8b00370).
Numbers after ± are expanded uncertainties.

Conditions: 308.15 K; 100 kPa; Liquid; Vibrating tube method

For `O` [water], the mass density was 994.061 ± 2 kg/m3.
